Some of the results follow. Shown are side measurements of this screen, not its main read-out; they come without a call. Most of these compounds were active or inconclusive in the main read-out, so they are no random draw. Words in brackets tell the shape of the fitted curve; partial curves, single points and poor fits give uncertain potencies.
assay: qHTS Assay for Identifying the Cell-Membrane Permeable IMPase Inhibitors; conditions: CHO-M1 cells, IP1 accumulation, HTRF TR-FRET ratio; measured here: donor channel 620 nm AC50

Question: Which AC50 does the source give for `O=C(O)CNC(=O)CCN1C(=O)c2ccccc2C1=O` here?
Answer: The AC50 was 10 µM [falling, single point].

Question: For `COc1ccc(C(=O)CSc2nnc(COc3ccc(C#N)cc3)n2-c2ccccc2)cc1`, which AC50 is on record?
Answer: Its AC50 is 1.58 µM [rising, partial curve, poor fit].

Question: For `COc1ccc(Nc2nc(-c3ccccc3)c3cc(Br)ccc3n2)cc1`, which AC50 is on record?
Answer: Its AC50 is 0.178 µM [falling, full curve, poor fit].

Question: With `CCOC(=O)CSc1nc(N)c(C#N)c(-c2ccc(OC)cc2)c1C#N` as the compound, how does the AC50 read?
Answer: The AC50 was 31.6 µM [rising, single point].

Question: Which AC50 does the source give for `CCCC(=O)Nc1cc(C)c(NC(=O)Cc2ccccc2)cn1` here?
Answer: Its AC50 is 15.8 µM [rising, single point].

Question: Which AC50 does the source give for `O=C(CCCOc1ccccc1)Nc1nccs1` here?
Answer: The AC50 was 0.1 µM [falling, full curve, poor fit].

Question: For `COc1ccc(-n2c(Cc3cccn3C)nnc2SCC(=O)Nc2cccc(C)c2C)cc1`, which AC50 is on record?
Answer: The AC50 was 35.5 µM [falling, partial curve, poor fit].

Question: With `O=C1C=CC2=C3c4cc(O)c(O)cc4CC3(O)COC2=C1O` (centres undefined) as the compound, how does the AC50 read?
Answer: Its AC50 is 12.6 µM [falling, partial curve].

Question: With `CC(C)c1c(O)nc(SCc2ccccc2)[nH]c1=O` as the compound, how does the AC50 read?
Answer: The AC50 was 0.501 µM [falling, single point].

Question: For `CCCCOC(=O)C1CN(c2ccccc2)N=C1C(=O)OCC` (centres undefined), which AC50 is on record?
Answer: The AC50 was 2.24 µM [rising, partial curve].

Question: With `CCCN(CCC)C(=O)Cn1c2ccccc2c2nc(=O)cc(C)n21` as the compound, how does the AC50 read?
Answer: Its AC50 is 31.6 µM [rising, single point].

Question: Which AC50 does the source give for `O=S(=O)(c1ccc(C2CCCCC2)cc1)N1CCCC1` here?
Answer: The AC50 was 0.794 µM [falling, full curve].

Question: For `Cc1ccc(NC(=O)COC(=O)c2sccc2C)cc1S(=O)(=O)N1CCOCC1`, which AC50 is on record?
Answer: Its AC50 is 0.0224 µM [falling, full curve, poor fit].

Question: With `C#CCSc1nc(-c2ccccc2)cc(C(F)(F)F)c1C#N` as the compound, how does the AC50 read?
Answer: Its AC50 is 12.6 µM [rising, partial curve].

Question: With `COc1cc(/C=N/NC(N)=S)ccc1OC(=O)c1ccc(C)cc1` as the compound, how does the AC50 read?
Answer: The AC50 was 25.1 µM [falling, single point].

Question: For `C=CCn1cc(C(=O)NCCCOCC)c(=O)c2cc(S(=O)(=O)N(CC)CC)ccc21`, which AC50 is on record?
Answer: Its AC50 is 0.794 µM [rising, single point].

Question: For `Cc1ccc(CCNC(=O)C2CCN(S(=O)(=O)c3c(C)nn(C)c3C)CC2)cc1`, which AC50 is on record?
Answer: The AC50 was 1 µM [falling, full curve, poor fit].

Question: Which AC50 does the source give for `COC(=O)c1ccc2c(=O)sc(N3CCC(C(N)=O)CC3)nc2c1` here?
Answer: The AC50 was 25.1 µM [rising, single point].

Question: With `COc1ccccc1N1CCN(C(c2ccccn2)c2nnnn2C2CCCCC2)CC1` (centres undefined) as the compound, how does the AC50 read?
Answer: Its AC50 is 15.8 µM [falling, partial curve].

From PubChem BioAssay AID901 (National Center for Advancing Translational Sciences (NCATS), 2007)
